According to PMC10045983:
These are yes or no findings as the source states them, for the method shown. Binding seen in cells or lysates may run through a third protein. Some results given as binding are weak or reduced against the parent protein; the word gives no strength. Each block holds one molecule with its values, some of them ahead of it.

Chains of the proteins cited; added tags and fusions are not shown.
UniProt Q4QQW4: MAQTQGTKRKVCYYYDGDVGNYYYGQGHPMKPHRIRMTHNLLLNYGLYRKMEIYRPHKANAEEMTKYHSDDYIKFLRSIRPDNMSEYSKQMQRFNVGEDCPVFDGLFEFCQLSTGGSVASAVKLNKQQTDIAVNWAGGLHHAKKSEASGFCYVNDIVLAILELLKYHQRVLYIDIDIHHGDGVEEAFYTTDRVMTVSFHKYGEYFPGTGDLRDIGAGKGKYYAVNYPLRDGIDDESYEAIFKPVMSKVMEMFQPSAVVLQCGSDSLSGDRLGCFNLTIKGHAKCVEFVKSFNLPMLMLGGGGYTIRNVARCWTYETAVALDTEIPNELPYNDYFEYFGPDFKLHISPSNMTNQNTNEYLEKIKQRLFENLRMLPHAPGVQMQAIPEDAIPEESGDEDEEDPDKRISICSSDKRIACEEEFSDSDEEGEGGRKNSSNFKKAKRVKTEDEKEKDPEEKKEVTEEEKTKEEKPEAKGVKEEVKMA
UniProt Q14432: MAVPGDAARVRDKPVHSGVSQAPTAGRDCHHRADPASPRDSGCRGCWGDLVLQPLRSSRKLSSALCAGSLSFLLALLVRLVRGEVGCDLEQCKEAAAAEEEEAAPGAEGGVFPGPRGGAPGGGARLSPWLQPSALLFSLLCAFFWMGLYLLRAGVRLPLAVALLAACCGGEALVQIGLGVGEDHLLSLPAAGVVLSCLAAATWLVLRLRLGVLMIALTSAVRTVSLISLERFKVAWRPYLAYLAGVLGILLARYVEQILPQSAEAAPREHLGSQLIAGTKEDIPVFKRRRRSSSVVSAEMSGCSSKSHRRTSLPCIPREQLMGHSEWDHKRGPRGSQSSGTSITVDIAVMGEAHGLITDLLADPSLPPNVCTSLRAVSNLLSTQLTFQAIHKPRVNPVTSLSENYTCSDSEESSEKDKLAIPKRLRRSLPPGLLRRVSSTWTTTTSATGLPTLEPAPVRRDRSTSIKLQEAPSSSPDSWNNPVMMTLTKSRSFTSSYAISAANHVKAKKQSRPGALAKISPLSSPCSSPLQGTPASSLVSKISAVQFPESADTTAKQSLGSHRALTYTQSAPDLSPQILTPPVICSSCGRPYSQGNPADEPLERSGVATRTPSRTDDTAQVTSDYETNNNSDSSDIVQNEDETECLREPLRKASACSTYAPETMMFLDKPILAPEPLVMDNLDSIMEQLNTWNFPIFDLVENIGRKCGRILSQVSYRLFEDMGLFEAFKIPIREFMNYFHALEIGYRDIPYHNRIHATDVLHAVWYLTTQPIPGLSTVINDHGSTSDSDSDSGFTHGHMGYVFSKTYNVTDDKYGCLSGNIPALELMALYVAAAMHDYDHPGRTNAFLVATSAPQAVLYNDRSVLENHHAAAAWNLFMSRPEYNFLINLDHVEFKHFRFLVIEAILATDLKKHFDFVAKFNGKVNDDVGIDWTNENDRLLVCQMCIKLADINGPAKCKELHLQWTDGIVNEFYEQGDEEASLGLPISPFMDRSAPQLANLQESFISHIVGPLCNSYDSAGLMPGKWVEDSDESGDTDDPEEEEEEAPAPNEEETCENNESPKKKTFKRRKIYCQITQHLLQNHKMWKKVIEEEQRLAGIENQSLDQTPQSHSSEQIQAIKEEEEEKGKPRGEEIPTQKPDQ
UniProt O70437: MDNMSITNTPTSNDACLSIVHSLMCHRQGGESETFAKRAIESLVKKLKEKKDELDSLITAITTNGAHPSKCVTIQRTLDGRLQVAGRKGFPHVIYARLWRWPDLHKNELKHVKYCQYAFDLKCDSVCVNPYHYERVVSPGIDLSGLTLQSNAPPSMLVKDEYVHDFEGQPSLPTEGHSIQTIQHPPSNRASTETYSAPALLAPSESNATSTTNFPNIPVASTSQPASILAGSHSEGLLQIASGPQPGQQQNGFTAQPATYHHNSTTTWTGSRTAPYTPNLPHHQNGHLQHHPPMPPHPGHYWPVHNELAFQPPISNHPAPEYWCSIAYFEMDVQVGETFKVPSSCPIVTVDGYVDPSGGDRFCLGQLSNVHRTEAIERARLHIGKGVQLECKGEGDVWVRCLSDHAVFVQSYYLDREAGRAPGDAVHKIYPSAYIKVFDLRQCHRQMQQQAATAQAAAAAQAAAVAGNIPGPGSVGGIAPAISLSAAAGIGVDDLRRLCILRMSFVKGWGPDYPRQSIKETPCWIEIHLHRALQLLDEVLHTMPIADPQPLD
UniProt P12368: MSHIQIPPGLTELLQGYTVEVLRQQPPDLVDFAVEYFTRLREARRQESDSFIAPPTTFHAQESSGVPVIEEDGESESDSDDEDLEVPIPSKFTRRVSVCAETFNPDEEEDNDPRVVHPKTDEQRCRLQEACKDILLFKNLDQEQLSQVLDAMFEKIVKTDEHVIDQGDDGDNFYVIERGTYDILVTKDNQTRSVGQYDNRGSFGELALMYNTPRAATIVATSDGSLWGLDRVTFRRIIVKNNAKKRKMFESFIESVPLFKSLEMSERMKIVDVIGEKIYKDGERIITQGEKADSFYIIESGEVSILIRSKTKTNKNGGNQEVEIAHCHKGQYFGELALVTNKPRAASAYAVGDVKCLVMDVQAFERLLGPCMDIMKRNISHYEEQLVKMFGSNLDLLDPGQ

What was measured:
Flag HDAC-1 = Flag HDAC-1 (UniProt Q4QQW4); assay: co-IP; Flag pull down from lysates of NRVM expressing HDAC-1-Flag; Western blot for PDE3A, PKA RIIα and Cα
PDE3A1-mCherry = PDE3A1-mCherry (UniProt Q14432); assay: co-IP; RFP-Trap beads, lysates of NRVM expressing RFP (mCherry)-tagged PDE3A1 or PDE3A2; Western blot for endogenous SMAD4 and HDAC-1
[1] = target: SMAD4 (SMAD family member 4), endogenous, rat (rat (endogenous in NRVM, ARVM and rat left ventricle)) (UniProt O70437); assay: co-IP; endogenous proteins from NRVM lysates, anti-SMAD4 or anti-PDE3A antibody and protein A beads, overnight at 4 °C; Western blot
Flag SMAD4 = Flag SMAD4 (UniProt O70437); assay: co-IP; Flag M2 agarose beads, lysates of NRVM expressing Flag-tagged SMAD4; immunoprecipitate probed with anti-PDE3A antibody

binding (Flag HDAC-1): binds
Molecule: PKA regulatory subunit (RIIα), endogenous, rat (from UniProt P12368 1-401)

binding (PDE3A1-mCherry): binds
Molecule: SMAD4 (SMAD family member 4), endogenous, rat (from UniProt O70437 1-552)

binding [1]: no binding
binding (Flag SMAD4): no binding
B1: PDE3A1, endogenous, rat (enzyme, UniProt Q62865 1-1141)
chain: MAVRGEAAQDWAKPGLRGPSPAPVARGDHRCRGGSPSSPRGSGCCWRALALQPLRRSPQLSSALCAGSLSVLLALLVRLVGGEVGGELESSQEAAAEEEEEEGARGGVFPGPRGGAPGGGAQLSPWLQPAALLFSLLCAFFWMGLCLLRAGVRLPLAVALLAACCAGEALVQLSLGVGDGRLLSLPAAGVLLSCLGGATWLVLRLRLGVLMVALTSALRTVALVSLERFKVAWRPYLAYLAAVLGLLLARYAEQLLPQCSGPAPPRERFGSQSSARTKEEIPGWKRRRRSSSVVAGEMSGCGGKSHRRTSLPCIPREQLMGHSEWDHKRGSRGSQSGTSVTVDIAVMGEAHGLITDLLADPSLPPNVCTSLRAVSNLLSTQLTFQAIHKPRVNPTVTFSENYTCSDSEEGLEKDKLAIPKRLRRSLPPGLLRRVSSTWTTTTSATGLPTLEPAPVRRDRSASIKPHEAPSPSAVNPDSWNAPVLMTLTKSRSFTSSYAVSAANHVKAKKQNRPGGLDKISPVPSPSSSPPQGSPTSSPVSGIASVQFPESPEVTTKRGPGSHRALTYTQSAPDLSPQIPPSPVICSSCGRPYSQGNPADGPSERSGPAMQKPNRTDDTSQVTSDYETNNNSDSSDILQNDEEAECQREPLRKASACGTYTPQTMIFLDKPILAPEPLVMDNLDSIMDQLNTWNFPIFDLVENIGRKCGRILSQVSYRLFEDMGLFEAFKIPVREFMNYFHALEIGYRDIPYHNRIHATDVLHAVWYLTTQPIPGLPSVIGDHGSASDSDSDSGFTHGHMGYVFSKAYHVPDDKYGCLSGNIPALELMALYVAAAMHDYDHPGRTNAFLVATSAPQAVLYNDRSVLENHHAAAAWNLFMSRPEYNFLVNLDHVEFKHFRFLVIEAILATDLKKHFDFVAKFNAKVNDDVGIDWTNENDRLLVCQMCIKLADINGPAKCKDLHLRWTEGIASEFYEQGDEEASLGLPISPFMDRSAPQLANLQESFISHIVGPLCHSYDSAGLMPGKWVDDSDDSGDTDDPEEEEEEAETPHEEETCENSEAPRKKSFKRRRIYCQITQHLLQNHMMWKKVIEEEQCLSGTENQAPDQAPLQHSSEQIQAIKEEEEEKGKPRAEETLAPQPDL
